Assay results as given in article PMC6930887.
No constants are given. Whether binding was seen depends on the method and setting. Some results given as binding are weak or reduced against the parent protein; the word gives no strength.

Amino acid sequences for entries named in this document (tags omitted).
UniProt Q99720: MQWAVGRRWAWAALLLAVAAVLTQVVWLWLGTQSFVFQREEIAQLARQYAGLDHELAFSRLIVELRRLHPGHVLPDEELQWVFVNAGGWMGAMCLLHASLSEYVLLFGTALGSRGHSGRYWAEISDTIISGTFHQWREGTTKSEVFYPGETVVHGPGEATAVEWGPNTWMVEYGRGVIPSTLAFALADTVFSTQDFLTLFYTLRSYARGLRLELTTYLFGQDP

Columns and labels:
[1] = biological target: N-terminally tagged Myc-σ1R (human) (UniProt Q99720); experiment: SDS-PAGE western blot without heat denaturation; lysates of transfected HEK293T Δσ1R cells (1.0% triton X-100, 0.5% sodium deoxycholate, 150 mM NaCl, Tris 50 mM pH 7.5) kept on ice (4°C) in β-mercaptoethanol Laemmli buffer; 10% gel, 0.1% SDS running buffer; anti-σ1R (B-5) or anti-myc blot; cells pre-incubated 1 h with 1 μM haloperidol, 1 μM PD 144418, 10 μM (+)-pentazocine or 1% DMSO in some panels
[2] = biological target: N-terminally tagged Nluc-σ1R (human) (UniProt Q99720); experiment: as above
[3] = biological target: unmodified wildtype (WT) sigma 1 receptor (σ1R) (human) (UniProt Q99720); experiment: condition: only samples boiled (100°C) before SDS-PAGE; SDS-PAGE western blot after heating of the samples; as the on-ice protocol, but samples heated in the sample buffer (100°C boiling, or 70°C with or without ligands) before SDS-PAGE

“N-terminally tagged Myc-σ1R (from UniProt Q99720 1-223) (receptor)” was tested, and the binding [1] was “binds weakly”.

In the case of “N-terminally tagged Nluc-σ1R (from UniProt Q99720 1-223) (receptor)”, the binding [2] is reported as “binds weakly”.

In the case of “unmodified wildtype (WT) sigma 1 receptor (σ1R) (from UniProt Q99720 1-223)”, the binding [3] is reported as “no binding”.
